# According to PubChem BioAssay AID2718 (Broad Institute, 2010):
# Amino acid sequences for entries named in this document (tags omitted).
# UniProt O15379, whole entry, looked up: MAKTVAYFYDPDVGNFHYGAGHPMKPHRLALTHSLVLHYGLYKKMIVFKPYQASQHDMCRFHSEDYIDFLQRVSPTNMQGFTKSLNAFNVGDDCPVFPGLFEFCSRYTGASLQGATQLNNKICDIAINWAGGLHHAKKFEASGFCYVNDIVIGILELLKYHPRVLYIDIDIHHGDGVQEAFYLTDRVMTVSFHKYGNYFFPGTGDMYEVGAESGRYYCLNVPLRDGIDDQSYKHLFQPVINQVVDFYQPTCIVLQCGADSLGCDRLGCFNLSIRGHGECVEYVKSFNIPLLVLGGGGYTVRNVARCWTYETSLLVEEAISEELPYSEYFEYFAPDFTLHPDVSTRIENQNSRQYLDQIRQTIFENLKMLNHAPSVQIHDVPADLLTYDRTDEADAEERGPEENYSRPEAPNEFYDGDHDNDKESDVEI
# The whole screen tested about 320,000 compounds, of which about 480 (0.15%) were called active. Inconclusive results, whose numbers are uncertain, are shown with a selection of clear calls. No stated cut-off is given here; in the data, active means inhibition above about 26% (passing the limit was not always enough); inconclusive means no clear call, values can overlap the other calls.
# Biological target: Histone deacetylase 3 (Homo sapiens) (UniProt O15379)
# Assay: HDAC3 deacetylase inhibitors, primary screen, biochemical, fluorescence, cell-free homogeneous (AID 2718)
# Conditions: recombinant HDAC3, fluorogenic peptide/trypsin coupled, at 8.3 µM, active compounds read high
row,Structure (SMILES),inhibition
1,CC(=O)Nc1nc(=S)n(-c2ccccc2)[nH]1,inconclusive: 25.4%
2,O=C(NC1CCCCC1)c1ccc(S(=O)(=O)NCc2ccco2)cc1,inactive: 4.1%
3,O=[N+]([O-])c1cccc(S(=O)(=O)N/N=C/c2ccc(O)cc2)c1,inactive: 8.77%
4,CC#CCN1c2ccccc2[C@]23C[C@@H](C(=O)OC)N(C(=O)NC(C)(C)C)C2=NC(C(=O)OC)=C(C(=O)OC)[C@H]13,inactive: -5.18%
5,CCc1ccc2ncc(S(=O)(=O)c3ccc(C)c(C)c3)c(N3CCCC3)c2c1,inconclusive: 16.8%
6,CCOC(=O)C(=NC(C)CC)NNc1cccc(C(F)(F)F)c1 (centres undefined),inconclusive: 17.9%
7,COc1ccc(CCC(=O)NNC(=O)Cn2nc(C)cc2C)cc1,inactive: -4.92%
8,Cn1c(SCC(=O)c2ccc(F)cc2)nnc1-c1ccccc1N,inconclusive: 25.3%
9,O=C(COc1ccc(F)cc1Cl)Nc1cc(S(=O)(=O)N2CCOCC2)ccc1N1CCCCC1,inconclusive: 19.5%
10,Cc1ccc(S(=O)(=O)N(C(=O)c2ccncc2)c2ccc(OC(=O)c3ccncc3)c3ccccc23)cc1,inconclusive: 20%
11,CCOc1c(Cl)cc(/C=C/C(=O)N(CC)CC(=O)Nc2ccc(NC(C)=O)cc2)cc1OC,inconclusive: 18.4%
12,CC(C)(C)NC(=O)c1cccc(NC(=O)c2cccc(O)c2)c1,inconclusive: 20%
13,C=CCNc1sc(C(=O)c2ccccc2)c(N)c1-c1nc2ccccc2s1,inactive: 3.78%
14,COc1cc(NC(=S)NCCN2CCOCC2)cc(OC)c1,inconclusive: 15.5%
15,COc1ccc(CCC(=O)N2CCCC(Nc3ccc(OC)cc3)C2)cc1 (centres undefined),inconclusive: 15.1%
16,O=C(c1ccco1)n1nc(-c2ccco2)nc1SCc1ccccc1,inconclusive: 23.5%
17,Cn1c(=O)c2c(ncn2CC(=O)OCC(=O)Nc2ccccc2)n(C)c1=O,inactive: -5.51%
18,Cc1c(Br)c([N+](=O)[O-])nn1C(C)C(=O)N1CCc2ccccc2C1 (centres undefined),inactive: 0.666%
19,O=[N+]([O-])c1ccc(N=Nc2ccc(O)cc2O)cc1,inconclusive: 14.5%
20,CCCCCCCCCCC[N+](C)(C)CC/C=C1/c2ccccc2Sc2ccc(Cl)cc21,active: 32.4%
21,c1ccc(CC2CCN(C(c3cccs3)c3nnnn3C3CCCC3)CC2)cc1 (centres undefined),inconclusive: 28.4%
22,Cc1cc(C)nc(NC(=O)c2cc([N+](=O)[O-])cc([N+](=O)[O-])c2)n1,inconclusive: 18.3%
23,O=C1[C@@H]2Cc3c([nH]c4ccccc34)C(c3ccccc3)N2C(=O)CN1C1CCN(Cc2ccccc2)CC1 (some centres undefined),inactive: 2.71%
24,CCn1c(/C=C/c2cc[n+](C)cc2)nc2ccccc21,inconclusive: 25.6%
25,CCOc1ccc(S(=O)(=O)N2CCN(CC(O)COc3cccc([N+](=O)[O-])c3)CC2)cc1 (centres undefined),inactive: -6.28%
26,Nc1ccc(-c2nc3ccc(N)cc3[nH]2)cc1,inactive: -245%
27,CC(=NCCCn1ccnc1)c1c(C)[nH]n(-c2ccc([N+](=O)[O-])cc2)c1=O,inconclusive: 12.2%

row,Structure (SMILES),inhibition
1,O=C(O)CC(NC(=O)C12CC3CC(CC(C3)C1)C2)c1cc([N+](=O)[O-])ccc1Cl (centres undefined),inconclusive: 20.2%
2,[N-]=[N+]=NC1c2ccccc2C(=O)N1Cc1ccccc1 (centres undefined),inactive: 0.0117%
3,C=CC[C@@H](CC(=O)N(CCO)Cc1ccccc1)C(=O)N[C@@H](COC(=O)[C@H](CC=C)CC(=O)OC(C)(C)C)Cc1c[nH]c2ccccc12,active: 32.9%
4,OCCN(Cc1ccccc1)Cc1cccc(F)c1,inactive: 2.73%
5,C=CCN1C(=O)c2cccc3c(N4CCCCC4)ccc(c23)C1=O,inactive: -8.93%
6,Cc1ccnc(SCC(=O)N2CCC(C(N)=O)CC2)n1,inconclusive: 8.18%
7,C#CCOCCOCCOCCNc1nc(N2CCN(C(=O)C([C@@H](C)O)n3cc([C@@H](N)CCCCN)nn3)CC2)nc(N2CCN(C(=O)C([C@@H](C)O)n3cc([C@@H](N)CCCCN)nn3)CC2)n1 (some centres undefined),inactive: -0.991%
8,Cc1ccc2nc(C)cc(C(=O)N3CCCC(CO)(Cc4ccccc4C)C3)c2c1 (centres undefined),inconclusive: 23.6%
9,COC(=O)c1cc(Cl)c(NC(=O)c2ccc(C(C)(C)C)cc2)cc1OC,inconclusive: 22.8%
10,CCCCN(C(=O)C(C)Oc1ccc(Cl)cc1)c1c(N)n(CCCC)c(=O)[nH]c1=O (centres undefined),inconclusive: 27.4%
11,COc1ccc(N2CCN(C(=O)/C=C/c3ccco3)CC2)cc1,inconclusive: 23.9%
12,NNC(=O)c1ccc2c(c1)S(=O)(=O)NNC2=O,inconclusive: 18.7%
13,Nc1cc(Oc2ccc(Cl)cc2Cl)nc(N)n1,inconclusive: 13.8%
14,CCCCn1nc(NS(=O)(=O)c2cccc3nonc23)c2cc3cccc(C)c3nc21,inactive: -0.952%
15,CCOc1ccc(N(CC(=O)N/N=C/c2cccnc2)S(C)(=O)=O)cc1,inactive: -1.14%
16,CCN(CC)C(=O)c1ccccc1NC(=O)CN1C(=O)c2ccccc2S1(=O)=O,inconclusive: 27.7%
17,Cc1nn(C)c(C)c1S(=O)(=O)N1CCC(C(=O)NC(C)c2ccccc2)CC1 (centres undefined),inconclusive: 30.1%
18,CCN(CC)C(C(=O)Nc1ccc(C(C)C)cc1)c1ccc2c(c1)OCO2 (centres undefined),inactive: -7.86%
19,CC(C)C[C@H](NC(=O)NCc1ccc(F)cc1)C(=O)O,inactive: 2.48%
20,Cn1c(=O)c2c([nH]c(=S)n2CCCc2ccccc2)n(C)c1=O,active: 40.5%
21,O=C1OC2(CCCC2)OC(=O)C1=Cc1c[nH]c2ccccc12,inconclusive: 17.5%
22,COc1ccc(O)c(C(=O)c2cnn(C(=O)c3cccc(N(C)C)c3)c2)c1,active: 30%
23,O=C(NCCc1ccccc1)c1nc2c(nnn2Cc2ccccc2Cl)c(=O)[nH]1,inconclusive: 16.3%
24,Cc1cc(Nc2ccccc2)n(CCO)n1,inconclusive: 12.9%
25,CCCNc1c(NS(=O)(=O)c2ccc(Br)cc2)c(=O)oc2ccccc12,inconclusive: 14.8%
26,CC(C)Nc1c(N)c(=O)oc2ccccc12,inconclusive: 9.37%
27,Nc1cc(OC(=O)c2cccs2)nn1S(=O)(=O)c1ccccc1,active: 95.8%

# Taken from above.
# Under inhibition, `Cc1c(Br)c([N+](=O)[O-])nn1C(C)C(=O)N1CCc2ccccc2C1` (centres undefined) has inactive: 0.666%
# Under inhibition, `CCOc1ccc(S(=O)(=O)N2CCN(CC(O)COc3cccc([N+](=O)[O-])c3)CC2)cc1` (centres undefined) has inactive: -6.28%
